These are yes or no findings as the source states them, for the method shown. Binding seen in cells or lysates may run through a third protein. Some binding calls cover weakened binding; strength is not graded here. Where a sequence is shown, tags or fusion partners need not be part of it. Values belong to the binder of their own block, whether it stands above or below them.
Key:
Assay in all cases: co-IP
[1] = target: T1, FLAG-tagged MYB75 (Arabidopsis) (UniProt Q9FE25)
T1 sequence: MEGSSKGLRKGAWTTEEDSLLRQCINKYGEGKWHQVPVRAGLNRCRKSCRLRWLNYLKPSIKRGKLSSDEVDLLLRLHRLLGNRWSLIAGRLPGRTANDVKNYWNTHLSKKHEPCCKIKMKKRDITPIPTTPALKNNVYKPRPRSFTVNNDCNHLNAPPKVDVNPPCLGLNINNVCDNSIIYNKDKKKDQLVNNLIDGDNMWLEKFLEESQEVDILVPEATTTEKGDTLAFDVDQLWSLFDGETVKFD

[2] = target: T2, FLAG-tagged TTG1 (Arabidopsis) (UniProt Q9XGN1)
T2 sequence: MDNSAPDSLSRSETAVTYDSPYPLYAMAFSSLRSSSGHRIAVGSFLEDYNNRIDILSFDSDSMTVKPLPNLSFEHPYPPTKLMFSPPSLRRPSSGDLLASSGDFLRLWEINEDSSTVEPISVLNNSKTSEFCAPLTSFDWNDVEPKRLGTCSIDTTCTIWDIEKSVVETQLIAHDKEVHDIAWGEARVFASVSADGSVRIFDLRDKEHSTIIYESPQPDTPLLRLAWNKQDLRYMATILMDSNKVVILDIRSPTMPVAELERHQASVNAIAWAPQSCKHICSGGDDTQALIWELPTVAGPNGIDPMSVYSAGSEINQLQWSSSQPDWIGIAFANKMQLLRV

[3] = target: T3, FLAG-tagged bHLH2 (Arabidopsis) (UniProt Q9CAD0)
T3 sequence: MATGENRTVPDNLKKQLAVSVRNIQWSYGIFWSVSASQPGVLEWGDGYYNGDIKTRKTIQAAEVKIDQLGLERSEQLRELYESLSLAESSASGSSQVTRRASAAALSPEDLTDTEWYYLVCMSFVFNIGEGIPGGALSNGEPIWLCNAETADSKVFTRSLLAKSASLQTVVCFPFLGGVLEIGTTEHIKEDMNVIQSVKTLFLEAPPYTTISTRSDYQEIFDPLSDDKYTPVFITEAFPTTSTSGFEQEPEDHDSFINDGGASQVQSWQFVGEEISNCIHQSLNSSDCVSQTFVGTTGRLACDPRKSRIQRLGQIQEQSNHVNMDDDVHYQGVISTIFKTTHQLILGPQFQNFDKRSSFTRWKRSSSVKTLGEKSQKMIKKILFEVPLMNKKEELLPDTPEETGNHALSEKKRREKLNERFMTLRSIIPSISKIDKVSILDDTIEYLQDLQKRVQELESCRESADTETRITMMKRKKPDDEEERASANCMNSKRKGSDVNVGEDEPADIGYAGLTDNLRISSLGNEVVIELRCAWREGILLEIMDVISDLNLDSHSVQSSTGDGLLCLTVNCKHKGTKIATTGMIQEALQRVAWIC

binding [1]: binds
binding [2]: binds
B1: HA-tagged bHLH2 (protein, UniProt Q9CAD0 1-596)
chain: T3 sequence

binding [3]: binds
binding [2]: binds
B2: HA-tagged MYB75 (protein, UniProt Q9FE25 1-248)
chain: T1 sequence

binding [3]: binds
binding [1]: binds
B3: HA-tagged TTG1 (protein, UniProt Q9XGN1 1-341)
chain: T2 sequence

Reference: publication doi:10.1101/2022.11.21.517319
